Assay results: patent publication US12290521B2, “Methods and materials for identifying and treating BET inhibitor-resistant cancers” (Mayo Foundation for Medical Education and Research, priority 2018, dated 2025)

System: C4-2 cells
Test: RNA-seq transcriptome analysis in C4-2 cells
Type: cell-based, human
Conditions: JQ1 1 μM, 24 hours

## Cc1sc2c(c1C)C(c1ccc(Cl)cc1)=N[C@@H](CC(=O)OC(C)(C)C)c1nnc(C)n1-2 [JQ1]
  number of JQ1-downregulated genes in both control and SPOP-F133V cells: 5,079 genes
  number of genes suppressed by JQ1 in control cells but unchanged or upregulated in F133V-mutant cells: 1,017 genes
